A short description of the data set: general procedure: solution-phase peptide synthesis; HATU/DIPEA; BOP; EDCI/NHS. The settings on record: coupling step, for three steps.

The substance NHS-ValCit-MMAE Step 3 amine gave a step yield of 26%.

Source of the values: patent US20170014524A1 (The California Institute for Biomedical Research, priority 2015, published 2017).
